Source: PubChem BioAssay AID1159579 (Peter MacCallum Cancer Centre, 2015)
The whole screen tested about 2,000 reagents; this is an unselected part. Of all reagents, 549 (27%) were called active. 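Some migration ratios are negative; siRNAs with too few cells are inactive whatever their migration ratio.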 The numbers tell different reagents against one gene apart. No sequences are given here. Not given: the time to read-out.

Test: 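Retest candidate lymphatic endothelial migration regulators using several independent siRNAs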 (follow-up of hits)
Cells: human dermal lymphatic endothelial cells
Reagents: single siRNA against human genes, 25 nM
Measurement: 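Scratch wound imaging measuring area filled by moving cells plus nuclei number, averaged over two wells and scaled to mock-transfected controls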
Reading the numbers: migration relative to mock: higher = more migration into the scratch; mean nuclei count: higher = more cells remaining
Call rule: 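a ratio of at most 0.6 or at least 1.3 marks altered migration and an active call; a mean nuclei count under 3300 forces an inactive call regardless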
Calls: active = migration changed (impaired or accelerated); inactive = no migration change, or too few cells

GRB10 (growth factor receptor bound protein 10) #1
- migration relative to mock: 0.48
- migration and cell number class: migration reduced
- mean nuclei count: 3626
- Call: active

GRB10 (growth factor receptor bound protein 10) #2
- migration relative to mock: 1.23
- migration and cell number class: no change in migration or cell number
- mean nuclei count: 6418
- Call: inactive

GRB10 (growth factor receptor bound protein 10) #3
- migration relative to mock: 0.78
- migration and cell number class: no change in migration or cell number
- mean nuclei count: 5416
- Call: inactive

GRB10 (growth factor receptor bound protein 10) #4
- migration relative to mock: 1.28
- migration and cell number class: no change in migration or cell number
- mean nuclei count: 5160
- Call: inactive

NDUFA8 (NADH:ubiquinone oxidoreductase subunit A8) #1
- migration relative to mock: 0.84
- migration and cell number class: no change in migration or cell number
- mean nuclei count: 5420
- Call: inactive

NDUFA8 (NADH:ubiquinone oxidoreductase subunit A8) #2
- migration relative to mock: 0.62
- migration and cell number class: no change in migration or cell number
- mean nuclei count: 4633
- Call: inactive

NDUFA8 (NADH:ubiquinone oxidoreductase subunit A8) #3
- migration relative to mock: 0.57
- migration and cell number class: migration reduced
- mean nuclei count: 5276
- Call: active

NDUFA8 (NADH:ubiquinone oxidoreductase subunit A8) #4
- migration relative to mock: 0.92
- migration and cell number class: no change in migration or cell number
- mean nuclei count: 6327
- Call: inactive

APOBEC3A (apolipoprotein B mRNA editing enzyme catalytic subunit 3A) #1
- migration relative to mock: 0.8
- migration and cell number class: no change in migration or cell number
- mean nuclei count: 7283
- Call: inactive

APOBEC3A (apolipoprotein B mRNA editing enzyme catalytic subunit 3A) #2
- migration relative to mock: 0.5
- migration and cell number class: migration reduced
- mean nuclei count: 5040
- Call: active

APOBEC3A (apolipoprotein B mRNA editing enzyme catalytic subunit 3A) #3
- migration relative to mock: 0.78
- migration and cell number class: no change in migration or cell number
- mean nuclei count: 6080
- Call: inactive

APOBEC3A (apolipoprotein B mRNA editing enzyme catalytic subunit 3A) #4
- migration relative to mock: 1.17
- migration and cell number class: no change in migration or cell number
- mean nuclei count: 7494
- Call: inactive

LAMA4 (laminin subunit alpha 4) #1
- migration relative to mock: 1.17
- migration and cell number class: no change in migration or cell number
- mean nuclei count: 6095
- Call: inactive

LAMA4 (laminin subunit alpha 4) #2
- migration relative to mock: 0.5
- migration and cell number class: migration reduced
- mean nuclei count: 5473
- Call: active

LAMA4 (laminin subunit alpha 4) #3
- migration relative to mock: -1.1
- migration and cell number class: too few cells; migration not scored
- mean nuclei count: 2309
- Call: inactive

LAMA4 (laminin subunit alpha 4) #4
- migration relative to mock: 0.75
- migration and cell number class: no change in migration or cell number
- mean nuclei count: 7020
- Call: inactive

CDKN1C (cyclin dependent kinase inhibitor 1C) #1
- migration relative to mock: 0.77
- migration and cell number class: no change in migration or cell number
- mean nuclei count: 6790
- Call: inactive

CDKN1C (cyclin dependent kinase inhibitor 1C) #2
- migration relative to mock: 0.72
- migration and cell number class: no change in migration or cell number
- mean nuclei count: 6005
- Call: inactive

CDKN1C (cyclin dependent kinase inhibitor 1C) #3
- migration relative to mock: 0.94
- migration and cell number class: no change in migration or cell number
- mean nuclei count: 6618
- Call: inactive

CDKN1C (cyclin dependent kinase inhibitor 1C) #4
- migration relative to mock: 0.91
- migration and cell number class: no change in migration or cell number
- mean nuclei count: 5805
- Call: inactive

TFAP2C (transcription factor AP-2 gamma) #1
- migration relative to mock: 0.86
- migration and cell number class: no change in migration or cell number
- mean nuclei count: 5932
- Call: inactive

TFAP2C (transcription factor AP-2 gamma) #2
- migration relative to mock: 0.03
- migration and cell number class: migration reduced
- mean nuclei count: 3324
- Call: active

TFAP2C (transcription factor AP-2 gamma) #3
- migration relative to mock: 0.52
- migration and cell number class: migration reduced
- mean nuclei count: 5089
- Call: active

TFAP2C (transcription factor AP-2 gamma) #4
- migration relative to mock: 0.79
- migration and cell number class: no change in migration or cell number
- mean nuclei count: 5820
- Call: inactive

TLNRD1 (talin rod domain containing 1) #1
- migration relative to mock: 0.85
- migration and cell number class: no change in migration or cell number
- mean nuclei count: 5742
- Call: inactive

TLNRD1 (talin rod domain containing 1) #2
- migration relative to mock: 0.93
- migration and cell number class: no change in migration or cell number
- mean nuclei count: 4724
- Call: inactive

TLNRD1 (talin rod domain containing 1) #3
- migration relative to mock: 0.76
- migration and cell number class: no change in migration or cell number
- mean nuclei count: 5182
- Call: inactive

TLNRD1 (talin rod domain containing 1) #4
- migration relative to mock: 0.7
- migration and cell number class: no change in migration or cell number
- mean nuclei count: 4950
- Call: inactive

SYCP1 (synaptonemal complex protein 1) #1
- migration relative to mock: 0.83
- migration and cell number class: no change in migration or cell number
- mean nuclei count: 5625
- Call: inactive

SYCP1 (synaptonemal complex protein 1) #2
- migration relative to mock: 0.85
- migration and cell number class: no change in migration or cell number
- mean nuclei count: 5484
- Call: inactive

SYCP1 (synaptonemal complex protein 1) #3
- migration relative to mock: 0.81
- migration and cell number class: no change in migration or cell number
- mean nuclei count: 5782
- Call: inactive

SYCP1 (synaptonemal complex protein 1) #4
- migration relative to mock: 0.74
- migration and cell number class: no change in migration or cell number
- mean nuclei count: 5344
- Call: inactive

ARL6IP6 (ARF like GTPase 6 interacting protein 6) #1
- migration relative to mock: 1.08
- migration and cell number class: no change in migration or cell number
- mean nuclei count: 4725
- Call: inactive

ARL6IP6 (ARF like GTPase 6 interacting protein 6) #2
- migration relative to mock: 1.04
- migration and cell number class: no change in migration or cell number
- mean nuclei count: 6574
- Call: inactive

ARL6IP6 (ARF like GTPase 6 interacting protein 6) #3
- migration relative to mock: 1.05
- migration and cell number class: no change in migration or cell number
- mean nuclei count: 5875
- Call: inactive

ARL6IP6 (ARF like GTPase 6 interacting protein 6) #4
- migration relative to mock: 0.68
- migration and cell number class: no change in migration or cell number
- mean nuclei count: 5072
- Call: inactive

Called active, among the entries above:
GRB10 (growth factor receptor bound protein 10) #1
- migration relative to mock: 0.48
- migration and cell number class: migration reduced
- mean nuclei count: 3626
- Call: active

NDUFA8 (NADH:ubiquinone oxidoreductase subunit A8) #3
- migration relative to mock: 0.57
- migration and cell number class: migration reduced
- mean nuclei count: 5276
- Call: active

APOBEC3A (apolipoprotein B mRNA editing enzyme catalytic subunit 3A) #2
- migration relative to mock: 0.5
- migration and cell number class: migration reduced
- mean nuclei count: 5040
- Call: active

LAMA4 (laminin subunit alpha 4) #2
- migration relative to mock: 0.5
- migration and cell number class: migration reduced
- mean nuclei count: 5473
- Call: active

TFAP2C (transcription factor AP-2 gamma) #2
- migration relative to mock: 0.03
- migration and cell number class: migration reduced
- mean nuclei count: 3324
- Call: active

TFAP2C (transcription factor AP-2 gamma) #3
- migration relative to mock: 0.52
- migration and cell number class: migration reduced
- mean nuclei count: 5089
- Call: active
